# Most of the hits are listed elsewhere, so they are rarer here than in the full data. Activity calls are given as the source filed them. How the calls were made is not given here.
# By UniProt entry, the sequences of proteins in these tests, tags left out.
# UniProt P03372, whole entry, looked up: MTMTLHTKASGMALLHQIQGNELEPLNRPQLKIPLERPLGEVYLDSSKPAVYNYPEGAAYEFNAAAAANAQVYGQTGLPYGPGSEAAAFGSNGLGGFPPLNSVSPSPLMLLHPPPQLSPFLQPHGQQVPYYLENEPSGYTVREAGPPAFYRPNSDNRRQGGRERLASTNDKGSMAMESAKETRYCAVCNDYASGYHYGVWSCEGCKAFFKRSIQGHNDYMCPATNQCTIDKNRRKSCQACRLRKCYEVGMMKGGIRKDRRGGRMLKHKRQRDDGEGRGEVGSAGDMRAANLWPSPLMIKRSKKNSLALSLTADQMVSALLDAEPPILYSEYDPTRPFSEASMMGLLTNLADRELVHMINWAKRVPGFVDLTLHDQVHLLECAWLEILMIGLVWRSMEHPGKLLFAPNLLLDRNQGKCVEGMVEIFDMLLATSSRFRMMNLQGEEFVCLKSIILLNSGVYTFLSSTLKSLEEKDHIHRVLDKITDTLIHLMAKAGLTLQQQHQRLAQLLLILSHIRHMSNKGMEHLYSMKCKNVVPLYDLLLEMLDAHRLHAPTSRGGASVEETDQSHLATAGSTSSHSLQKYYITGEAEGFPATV
# Biological target: Estrogen receptor (Homo sapiens) (UniProt P03372)
# Experiment: blockers of coactivator recruitment to ERα – biochemical, LOPAC library, TR-FRET, primary screen (AID 694);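 further: receptor was agonist-bound with estradiol present during the assay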
# Settings: TR-FRET ERalpha-coactivator peptide binding, stronger effect = higher value
smiles,measurement,setting,value
CN1C2CCC1CC(OC(=O)C(O)c1ccccc1)C2 (configuration not stated),inhibition,at 45 µM,inactive: 0.24%
same,inhibition,"inhibition, at 15 µM",-1.43%
